# Assay results from the supplement of paper PMC8728848.
# The other results are listed elsewhere or left out.
# B1: SspB C123 (Streptococcus gordonii), Q54186 (protein)
# chain: MAHFHYSSLLAQPQINKEIKNEDGVDIDRTLVAKQSIGKFELKTEALTAGRPKTTSFVLVDPLPTGYKFDLDATKAASTGFDTTYDEASHTVTFKATDETLATYNADLTKPVETLHPTVVGRVLNDGATYTNNFTLTVNDAYGIKSNVVRVTTPGKPNDPDNPNNNYIKPTKVNKNKEGLNIDGKEVLAGSTNYYELTWDLDQYKGDKSSKEAIQNGFYYVDDYPEEALDVRPDLVKVADEKGNQVSGVSVQQYDSLEAAPKKVQDLLKKANITVKGAFQLFSADNPEEFYKQYVSTGTSLVITDPMTVKSEFGKTGGKYENKAYQIDFGNGYATEVVVNNVPKITPKKDVTVSLDPTSENLDGQTVQLYQTFNYRLIGGFIPQNHSEELEDYSFVDDYDQAGDQYTGNYKTFSSLNLTMKDGSVIKAGTDLTSQTTAETDATNGIVTVRFKEDFLQKISLDSPFQAETYLQMRRIAIGTFENTYVNTVNKVAYASAAALEHHHHHH
# Tests used:
# Assay in all cases: glycan array binding signal (z-score within array); higher = stronger binding
# Details in all cases: glycan notation: IUPAC condensed, linker removed
# [1] = molecular target: Neu5Ac(a2-3)Gal(b1-3)[Fuc(a1-4)]GlcNAc
# How it was run: (§1)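 Glycan array data came from 3228 arrays in the Consortium for Functional Glycomics database, and only arrays with an available protein sequence were kept. Glycan names were put into IUPAC-condensed notation, and columns mapping to the same glycan were averaged. The binding signal is a within-array Z-score, averaged across arrays of one protein sequence run at different concentrations or buffers and across linkers. A negative Z-score can be read as non-binding.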
# [2] = molecular target: Neu5Ac(a2-3)Gal(b1-3)[Fuc(a1-4)]GlcNAc(b1-3)Gal(b1-3)[Fuc(a1-4)]GlcNAc
# How it was run: as §1
# [3] = molecular target: Neu5Ac(a2-3)Gal(b1-3)[Fuc(a1-4)]GlcNAc(b1-3)Gal(b1-4)[Fuc(a1-3)]GlcNAc
# How it was run: as §1
# [4] = molecular target: Neu5Ac(a2-3)Gal(b1-3)[GlcNAc(b1-6)]GalNAc
# How it was run: as §1
# [5] = molecular target: Neu5Ac(a2-3)Gal(b1-3)[Neu5Ac(a2-6)]GalNAc
# How it was run: as §1
# [6] = molecular target: Neu5Ac(a2-3)Gal(b1-3)[Neu5Ac(a2-6)]GlcNAc(b1-3)[Fuc(a1-3)[Gal(b1-4)]GlcNAc(b1-6)]Gal(b1-4)Glc
# How it was run: as §1
# [7] = molecular target: Neu5Ac(a2-3)Gal(b1-3)]Neu5Ac(a2-3)Gal(b1-4)]GlcNAc
# How it was run: as §1
# Neu5Ac(a2-3)Gal(b1-4)Glc = molecular target: Neu5Ac(a2-3)Gal(b1-4)Glc
# How it was run: as §1
# [8] = molecular target: Neu5Ac(a2-3)Gal(b1-4)GlcNAc
# How it was run: as §1
# [9] = molecular target: Neu5Ac(a2-3)Gal(b1-4)GlcNAc(b1-2)Man
# How it was run: as §1
# [10] = molecular target: Neu5Ac(a2-3)Gal(b1-4)GlcNAc(b1-2)Man(a1-3)[GlcNAc(b1-4)][Neu5Ac(a2-3)Gal(b1-4)GlcNAc(b1-2)Man(a1-6)]Man(b1-4)GlcNAc(b1-4)GlcNAc
# How it was run: as §1
# [11] = molecular target: Neu5Ac(a2-3)Gal(b1-4)GlcNAc(b1-2)Man(a1-3)[Neu5Ac(a2-3)Gal(b1-4)GlcNAc(b1-2)Man(a1-6)]Man(b1-4)GlcNAc(b1-4)GlcNAc
# How it was run: as §1
# [12] = molecular target: Neu5Ac(a2-3)Gal(b1-4)GlcNAc(b1-2)Man(a1-3)[Neu5Ac(a2-3)Gal(b1-4)GlcNAc(b1-2)Man(a1-6)]Man(b1-4)GlcNAc(b1-4)[Fuc(a1-6)]GlcNAc
# How it was run: as §1
# [13] = molecular target: Neu5Ac(a2-3)Gal(b1-4)GlcNAc(b1-2)Man(a1-3)[Neu5Ac(a2-6)Gal(b1-4)GlcNAc(b1-2)Man(a1-6)]Man(b1-4)GlcNAc(b1-4)GlcNAc
# How it was run: as §1
# [14] = molecular target: Neu5Ac(a2-3)Gal(b1-4)GlcNAc(b1-2)[Neu5Ac(a2-3)Gal(b1-4)GlcNAc(b1-4)]Man(a1-3)[GlcNAc(b1-4)][Neu5Ac(a2-3)Gal(b1-4)GlcNAc(b1-2)[Neu5Ac(a2-3)Gal(b1-4)GlcNAc(b1-6)]Man(a1-6)]Man(b1-4)GlcNAc(b1-4)GlcNAc
# How it was run: as §1
# [15] = molecular target: Neu5Ac(a2-3)Gal(b1-4)GlcNAc(b1-2)[Neu5Ac(a2-3)Gal(b1-4)GlcNAc(b1-4)]Man(a1-3)[GlcNAc(b1-4)][Neu5Ac(a2-3)Gal(b1-4)GlcNAc(b1-4)Man(a1-6)]Man(b1-4)GlcNAc(b1-4)GlcNAc
# How it was run: as §1
# [16] = molecular target: Neu5Ac(a2-3)Gal(b1-4)GlcNAc(b1-2)[Neu5Ac(a2-3)Gal(b1-4)GlcNAc(b1-6)]Man(a1-6)[Neu5Ac(a2-3)Gal(b1-4)GlcNAc(b1-2)Man(a1-3)]Man(b1-4)GlcNAc(b1-4)GlcNAc
# How it was run: as §1
# [17] = molecular target: Neu5Ac(a2-3)Gal(b1-4)GlcNAc(b1-2)[Neu5Ac(a2-3)Gal(b1-4)GlcNAc(b1-6)]Man(a1-6)[Neu5Ac(a2-3)Gal(b1-4)GlcNAc(b1-2)Man(a1-3)][GlcNAc(b1-4)]Man(b1-4)GlcNAc(b1-4)GlcNAc
# How it was run: as §1
# [18] = molecular target: Neu5Ac(a2-3)Gal(b1-4)GlcNAc(b1-3)Gal
# How it was run: as §1
# [19] = molecular target: Neu5Ac(a2-3)Gal(b1-4)GlcNAc(b1-3)Gal(b1-3)GlcNAc
# How it was run: as §1
# [20] = molecular target: Neu5Ac(a2-3)Gal(b1-4)GlcNAc(b1-3)Gal(b1-4)GlcNAc
# How it was run: as §1
# [21] = molecular target: Neu5Ac(a2-3)Gal(b1-4)GlcNAc(b1-3)Gal(b1-4)GlcNAc(b1-2)Man(a1-3)[Neu5Ac(a2-3)Gal(b1-4)GlcNAc(b1-3)Gal(b1-4)GlcNAc(b1-2)Man(a1-6)]Man(b1-4)GlcNAc(b1-4)GlcNAc
# How it was run: as §1
# [22] = molecular target: Neu5Ac(a2-3)Gal(b1-4)GlcNAc(b1-3)Gal(b1-4)GlcNAc(b1-3)Gal(b1-4)GlcNAc
# How it was run: as §1
# [23] = molecular target: Neu5Ac(a2-3)Gal(b1-4)GlcNAc(b1-3)Gal(b1-4)GlcNAc(b1-3)Gal(b1-4)GlcNAc(b1-2)Man(a1-3)[Neu5Ac(a2-3)Gal(b1-4)GlcNAc(b1-3)Gal(b1-4)GlcNAc(b1-3)Gal(b1-4)GlcNAc(b1-2)Man(a1-6)]GalNAc
# How it was run: as §1
# [24] = molecular target: Neu5Ac(a2-3)Gal(b1-4)GlcNAc(b1-3)Gal(b1-4)GlcNAc(b1-3)GalNAc
# How it was run: as §1
# [25] = molecular target: Neu5Ac(a2-3)Gal(b1-4)GlcNAc(b1-3)Gal(b1-4)GlcNAc(b1-3)[Neu5Ac(a2-3)Gal(b1-4)GlcNAc(b1-3)Gal(b1-4)GlcNAc(b1-6)]GalNAc
# How it was run: as §1
# [26] = molecular target: Neu5Ac(a2-3)Gal(b1-4)GlcNAc(b1-3)Gal(b1-4)GlcNAc(b1-6)[Gal(b1-3)]GalNAc
# How it was run: as §1
# [27] = molecular target: Neu5Ac(a2-3)Gal(b1-4)GlcNAc(b1-3)Gal(b1-4)[Fuc(a1-3)]GlcNAc
# How it was run: as §1
# [28] = molecular target: Neu5Ac(a2-3)Gal(b1-4)GlcNAc(b1-3)GalNAc
# How it was run: as §1
# [29] = molecular target: Neu5Ac(a2-3)Gal(b1-4)GlcNAc(b1-3)[Neu5Ac(a2-3)Gal(b1-4)GlcNAc(b1-6)]GalNAc
# How it was run: as §1
# [30] = molecular target: Neu5Ac(a2-3)Gal(b1-4)GlcNAc(b1-6)GalNAc
# How it was run: as §1
# [31] = molecular target: Neu5Ac(a2-3)Gal(b1-4)GlcNAc(b1-6)[Gal(b1-3)]GalNAc
# How it was run: as §1
# [32] = molecular target: Neu5Ac(a2-3)Gal(b1-4)GlcNAc(b1-6)[Neu5Ac(a2-3)Gal(b1-3)]GalNAc
# How it was run: as §1
# [33] = molecular target: Neu5Ac(a2-3)Gal(b1-4)GlcNAc6S
# How it was run: as §1
# [34] = molecular target: Neu5Ac(a2-3)Gal(b1-4)[Fuc(a1-3)]GlcNAc
# How it was run: as §1
# [35] = molecular target: Neu5Ac(a2-3)Gal(b1-4)[Fuc(a1-3)]GlcNAc(b1-2)Man
# How it was run: as §1
# [36] = molecular target: Neu5Ac(a2-3)Gal(b1-4)[Fuc(a1-3)]GlcNAc(b1-3)Gal
# How it was run: as §1
# [37] = molecular target: Neu5Ac(a2-3)Gal(b1-4)[Fuc(a1-3)]GlcNAc(b1-3)Gal(b1-4)GlcNAc
# How it was run: as §1
# [38] = molecular target: Neu5Ac(a2-3)Gal(b1-4)[Fuc(a1-3)]GlcNAc(b1-3)Gal(b1-4)[Fuc(a1-3)]GlcNAc(b1-3)Gal(b1-4)[Fuc(a1-3)]GlcNAc
# How it was run: as §1
# [39] = molecular target: Neu5Ac(a2-3)Gal(b1-4)[Fuc(a1-3)]GlcNAc(b1-3)GalNAc
# How it was run: as §1
# [40] = molecular target: Neu5Ac(a2-3)Gal(b1-4)[Fuc(a1-3)]GlcNAc(b1-6)[Gal(b1-3)]GalNAc
# How it was run: as §1
# [41] = molecular target: Neu5Ac(a2-3)Gal(b1-4)[Fuc(a1-3)]GlcNAc(b1-6)[Neu5Ac(a2-3)Gal(b1-3)]GalNAc
# How it was run: as §1
# [42] = molecular target: Neu5Ac(a2-3)Gal(b1-4)[Fuc(a1-3)]GlcNAc6S
# How it was run: as §1
# [43] = molecular target: Neu5Ac(a2-3)Gal6S(b1-4)GlcNAc
# How it was run: as §1
# [44] = molecular target: Neu5Ac(a2-3)Gal6S(b1-4)[Fuc(a1-3)]GlcNAc
# How it was run: as §1
binder,measurement,setting,value
B1,glycan array binding signal (z-score),[1],0.428
same,glycan array binding signal (z-score),[2],0.153
same,glycan array binding signal (z-score),[3],0.486
same,glycan array binding signal (z-score),[4],1.46
same,glycan array binding signal (z-score),[5],-0.108
same,glycan array binding signal (z-score),[6],-0.716
same,glycan array binding signal (z-score),[7],-0.801
same,glycan array binding signal (z-score),Neu5Ac(a2-3)Gal(b1-4)Glc,1.36
same,glycan array binding signal (z-score),[8],0.329
same,glycan array binding signal (z-score),[9],1
same,glycan array binding signal (z-score),[10],0.215
same,glycan array binding signal (z-score),[11],0.962
same,glycan array binding signal (z-score),[12],1.81
same,glycan array binding signal (z-score),[13],-0.798
same,glycan array binding signal (z-score),[14],-0.756
same,glycan array binding signal (z-score),[15],-1.59
same,glycan array binding signal (z-score),[16],2.43
same,glycan array binding signal (z-score),[17],-1.12
same,glycan array binding signal (z-score),[18],-0.393
same,glycan array binding signal (z-score),[19],-0.564
same,glycan array binding signal (z-score),[20],-0.62
same,glycan array binding signal (z-score),[21],1.03
same,glycan array binding signal (z-score),[22],1.89
same,glycan array binding signal (z-score),[23],0.503
same,glycan array binding signal (z-score),[24],0.115
same,glycan array binding signal (z-score),[25],0.031
same,glycan array binding signal (z-score),[26],0.036
same,glycan array binding signal (z-score),[27],0.208
same,glycan array binding signal (z-score),[28],-1.2
same,glycan array binding signal (z-score),[29],-1.26
same,glycan array binding signal (z-score),[30],0.695
same,glycan array binding signal (z-score),[31],0.097
same,glycan array binding signal (z-score),[32],-1.57
same,glycan array binding signal (z-score),[33],-0.085
same,glycan array binding signal (z-score),[34],-0.176
same,glycan array binding signal (z-score),[35],0.318
same,glycan array binding signal (z-score),[36],0.014
same,glycan array binding signal (z-score),[37],0.158
same,glycan array binding signal (z-score),[38],2.7
same,glycan array binding signal (z-score),[39],2.98
same,glycan array binding signal (z-score),[40],-0.062
same,glycan array binding signal (z-score),[41],3.38
same,glycan array binding signal (z-score),[42],0.086
same,glycan array binding signal (z-score),[43],-0.288
same,glycan array binding signal (z-score),[44],-0.28

# Part of the list above, reformatted.
binder | measurement | setting | value
B1 | glycan array binding signal (z-score) | [1] | 0.428
same | glycan array binding signal (z-score) | [2] | 0.153
